Assay results taken from the supplement of paper PMC5949888.
Most values lie at the floor of the assay. Slopes are relative: functional sequences can read slightly below zero.

Test system: Saccharomyces cerevisiae PS128 hsf1 delta, HSF1(1-493) fusion
Test: growth estimate (transactivation domain function in HSF1 fusion, heat-shock survival) (a.u. (slope of normalised read count over time)); higher = stronger growth at 37°C, i.e. more transactivation activity
Conditions: library: random library

| Substance | growth estimate |
| --- | --- |
| GIDSFMGGAY | < -0.25 |
| HQTRQGCRLSNVCLAAWRPL | < -0.25 |
| TRFVPTR | < -0.25 |
| GTAVAYWIDRYTGKWPRVIK | < -0.25 |
| HGERHLRSVPE | < -0.25 |
| AERWEL | < -0.25 |
| VRCRFMGGVVAWTRLRLMYH | < -0.25 |
| NPLMGLGSFREDPHVLGLIA | < -0.25 |
| STVGAKGAAHDLWQEVRPCD | < -0.25 |
| VDRKAGPLHMTIYDLLAPGA | < -0.25 |
| LPKYSVVYREGLQHFHAPMV | < -0.25 |
| GSFATGKVTLVNGPVC | < -0.25 |
| ELRVFGSLRQRSGNSGSRSD | < -0.25 |
| RIEGV | < -0.25 |
| VVSCALRHWEFSVAP | < -0.25 |
| LTHNDVYYLWRYQ | < -0.25 |
| GHPTALHLPPELSPAERGER | < -0.25 |
| VFSTSYWARDCALEPWMFLS | < -0.25 |
| LTSFGQPVIVA | < -0.25 |
| MGVRPGHRRRCKNPLG | < -0.25 |
| YSSVTVW | < -0.25 |
| ELCTIKVHLEN | < -0.25 |
| GDATKVGLGESVGTGRTTRQ | < -0.25 |

| Substance | growth estimate |
| --- | --- |
| GWRVGGTCIGKRIRRSSSEP | < -0.25 |
| RPLRRVKKNFSASADGTERG | < -0.25 |
| KDFPRGGGGHTPCTLTSVGD | < -0.25 |
| TSF | < -0.25 |
| HVLVR | < -0.25 |
| DCTSCGS | < -0.25 |
| HKKVEWLGYGGTRNLSVISR | < -0.25 |
| LPVQAPSVADVVEVRGSTLT | < -0.25 |
| RDNSVQLHK | < -0.25 |
| DGTPRTSTRWSEVVA | < -0.25 |
| GIVSDWLFSECLRR | -0.207 |
| SLGKYEARH | < -0.25 |
| EVRVPDCIAQRVIRIFRAIM | < -0.25 |
| LVRHTRQVGTTGPMWSCPRS | < -0.25 |
| HRQTDGRTGATGFFHSSAPR | < -0.25 |
| WIGRSLPYSQRYATDFFPRA | < -0.25 |
| VSFETKRARRSTAQQLVFSI | < -0.25 |
| TEGT | < -0.25 |
| FCGTYERSVQQTGGPKTGCR | < -0.25 |
| LESTERFRCLTRLAISVERR | < -0.25 |
| QYSPAWRRHGGR | < -0.25 |
| EVMVSVVGSAISHVAVINDA | < -0.25 |
| GPDVV | < -0.25 |

| Substance | growth estimate |
| --- | --- |
| AVDQPIRVICGRGVSPAR | < -0.25 |
| TSDCSVHEGSPY | < -0.25 |
| VRCFDGRKGQWGLRSIGRCH | < -0.25 |
| GVPPNATHVDHHGTQGTVVS | < -0.25 |
| QERAVIVLALKGIYETLSPT | < -0.25 |
| MLKSMPLHQLNAKQSVTSTV | < -0.25 |
| SEWWLAMVSRWVPRARHATC | < -0.25 |
| ITASPVLGYGPIQRCLSCGQ | < -0.25 |
| RKKE | < -0.25 |
| ACAVVSS | < -0.25 |
| LIQNEGRAASV | < -0.25 |
| GPTVNEWDSVNVCRLRARGS | < -0.25 |
| NTAADFSGL | < -0.25 |
| PEPIRYSHELR | < -0.25 |
| YTQLVKGFSWVCAACHRAHK | < -0.25 |
| HHIKLACM | < -0.25 |
| PVDGGFEIEGHTT | < -0.25 |
| RRRYLLR | < -0.25 |
| RVYRNKASECFPSTTEVRQL | < -0.25 |
| SRDGYFDRIHKESGGDGSAK | < -0.25 |
| IVVSCQESRYGSRARLVVLG | < -0.25 |
| YISASIAEANVVVNWRRATR | < -0.25 |
| YYLPEGQARISTAITVDFFG | -0.246 |

Quoted from the listing:
Entry for YTQLVKGFSWVCAACHRAHK under growth estimate: < -0.25
Entry for GPTVNEWDSVNVCRLRARGS under growth estimate: < -0.25
Entry for PVDGGFEIEGHTT under growth estimate: < -0.25

(next part)

| Substance | growth estimate |
| --- | --- |
| TRYRLVFTRSRVNHVS | < -0.25 |
| ENILRFNP | < -0.25 |
| SYKAGKQGHGPTWSGLT | < -0.25 |
| CDRGGPSGRLSNTSAVDQVL | < -0.25 |
| SKNLVPL | < -0.25 |
| VVGDTCMTRTIPL | < -0.25 |
| PNMGCGGWSRCTGPRSLILR | -0.243 |
| RELA | < -0.25 |
| AALCKLARANFFG | < -0.25 |
| TPSLVR | < -0.25 |
| GESESQREGSGERSFISRAF | < -0.25 |
| AEPLGVATRSLGRNMDRAER | < -0.25 |
| YRSELSKHAGRPMPNWAPRL | < -0.25 |
| FYKVAQANRGDRKEGAIMHS | < -0.25 |
| SSGSGDPWQ | < -0.25 |
| GGE | < -0.25 |
| CTCRSRISLLTGF | < -0.25 |
| GYYDQVDQGALSGIRCRATT | < -0.25 |
| SSALVWGSIYDVGLSRTTRE | < -0.25 |
| SLPMSPARPKVA | < -0.25 |
| RTILSLVIEISVVPNVGGPD | < -0.25 |
| GKTPLCCTGLVVSSFVSLVG | -0.246 |
| RMHKAPLCNGRPSR | < -0.25 |

| Substance | growth estimate |
| --- | --- |
| KTGRETYCEVISPILRCSAK | < -0.25 |
| PGPTRTQCDVSNKRQSTKRI | < -0.25 |
| PGDRPIG | < -0.25 |
| PLLGQKQSVLPSPATTMGWG | < -0.25 |
| ESTR | < -0.25 |
| PSPSNIDCRRGRPAL | < -0.25 |
| WSEGTHSKDPGGSMIAARAT | < -0.25 |
| ESDVVAERQDEFREGLWAGV | < -0.25 |
| IWESSRHRIKITQAPSNECG | < -0.25 |
| PLA | < -0.25 |
| RLLS | < -0.25 |
| CSGMRIQISSGQAMGQQLNA | < -0.25 |
| VWLTQR | < -0.25 |
| GFLVFT | < -0.25 |
| AYSNVAAMGHCTLTPLVLTA | < -0.25 |
| ECTTVDTVSRVIHCCKPAPR | -0.21 |
| QEEFTG | < -0.25 |
| LEEVALRYGISVVRVAGGRN | < -0.25 |
| KPSARSTKIMWDANGEFRRS | < -0.25 |
| SLARITNNRLCGHNVPHTRR | < -0.25 |
| YRSHTPIQLVTANRPVASTR | < -0.25 |
| IRTVCDNVQAMPRADSGSRR | < -0.25 |
| TIEGTLLGLYGDRRVKADPL | < -0.25 |

Rewritten with bars between the fields: entries from further up
Substance | growth estimate
PLLGQKQSVLPSPATTMGWG | < -0.25
PSPSNIDCRRGRPAL | < -0.25
PLA | < -0.25
KPSARSTKIMWDANGEFRRS | < -0.25
SLARITNNRLCGHNVPHTRR | < -0.25
YRSHTPIQLVTANRPVASTR | < -0.25

Remaining list, next part:

| Substance | growth estimate |
| --- | --- |
| LPVTTRRHARVTTLTTYLVG | < -0.25 |
| YKATISNQEVVGCASSSPKE | -0.243 |
| YLEWSASRVQETVSRIRLSR | < -0.25 |
| RCTRVDSE | < -0.25 |
| LACCYSSFLCQSTR | < -0.25 |
| SGSDRASGSCSSEPLGSRKG | < -0.25 |
| IPDVGRDPKSYSDSTYRSRN | < -0.25 |
| IRLRRMVGSFC | < -0.25 |
| MGTVRLSRT | < -0.25 |
| IQFCRVCLPTW | < -0.25 |
| DKPWDPLSRHLPGLLDGGQE | < -0.25 |
| PTDTPRRPAISLGGYSATVP | < -0.25 |
| LCTERNRRCNRL | < -0.25 |
| LRSIRYP | < -0.25 |
| VLSVDQVTGANGPISSNCGG | < -0.25 |
| HFGSLSRGFLSKDFPIRLF | < -0.25 |
| GRGL | < -0.25 |
| GLINSCSNRCTRGGSRLWQG | < -0.25 |
| TGGDPGWIYCHSICFA | < -0.25 |
| CLVPIDVGEPLA | 0.0484 |
| PEGVYSSCTLRLT | < -0.25 |
| VKKP | < -0.25 |
| PPRRMYISSLG | -0.25 |

| Substance | growth estimate |
| --- | --- |
| AEG | < -0.25 |
| KWREARAEDDDRRV | < -0.25 |
| WFFA | < -0.25 |
| EYA | < -0.25 |
| RVFERPQQFCSARLTHLPAC | < -0.25 |
| ELGAPTLFMVCVRRVARCFD | < -0.25 |
| PSVGIPV | < -0.25 |
| SILRAA | < -0.25 |
| YGHVL | < -0.25 |
| TGGYG | < -0.25 |
| SSEGGVQDKTPPMLLISDSS | < -0.25 |
| RGVQRLWIARSEEIIWSNRV | < -0.25 |
| RDLVIGCYSAWALGHKVLTP | < -0.25 |
| YLRSGQNECY | < -0.25 |
| ALFASRTGSWGFLNSLRNVC | < -0.25 |
| GTVTVYRASLTYEDTSETHT | < -0.25 |
| FQYQVCSPYTRALGPYAEPG | < -0.25 |
| VRRAYEGSTDLHRGKVLWGT | < -0.25 |
| VSPPDKWDT | < -0.25 |
